Measured values taken from the supplement of paper PMC10849652.
The other results are listed elsewhere or left out.

Chains of the proteins cited; added tags and fusions are not shown. Lines headed by an entry give the natural chain unless they say otherwise; changes in a name come on top.
UniProt O43493: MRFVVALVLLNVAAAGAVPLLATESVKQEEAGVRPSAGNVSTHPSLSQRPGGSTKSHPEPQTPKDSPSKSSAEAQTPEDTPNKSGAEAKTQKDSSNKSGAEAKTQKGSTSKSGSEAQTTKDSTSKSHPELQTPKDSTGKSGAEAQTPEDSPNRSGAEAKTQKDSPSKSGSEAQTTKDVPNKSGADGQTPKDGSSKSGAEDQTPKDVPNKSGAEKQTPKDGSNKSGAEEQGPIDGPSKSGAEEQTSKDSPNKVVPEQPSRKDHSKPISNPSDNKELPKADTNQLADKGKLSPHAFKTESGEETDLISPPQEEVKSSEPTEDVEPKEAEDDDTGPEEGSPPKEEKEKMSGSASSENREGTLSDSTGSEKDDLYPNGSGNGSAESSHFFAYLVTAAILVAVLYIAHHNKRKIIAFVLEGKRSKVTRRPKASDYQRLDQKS
UniProt Q9NPL8: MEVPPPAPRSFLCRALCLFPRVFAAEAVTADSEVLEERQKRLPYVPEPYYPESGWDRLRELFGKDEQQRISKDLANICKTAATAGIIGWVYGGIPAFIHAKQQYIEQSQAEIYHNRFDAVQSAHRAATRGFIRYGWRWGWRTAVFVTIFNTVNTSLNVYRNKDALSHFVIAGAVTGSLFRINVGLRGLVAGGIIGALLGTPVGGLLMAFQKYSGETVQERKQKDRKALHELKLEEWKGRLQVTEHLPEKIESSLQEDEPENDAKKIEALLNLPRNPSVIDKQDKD
UniProt Q8NI27: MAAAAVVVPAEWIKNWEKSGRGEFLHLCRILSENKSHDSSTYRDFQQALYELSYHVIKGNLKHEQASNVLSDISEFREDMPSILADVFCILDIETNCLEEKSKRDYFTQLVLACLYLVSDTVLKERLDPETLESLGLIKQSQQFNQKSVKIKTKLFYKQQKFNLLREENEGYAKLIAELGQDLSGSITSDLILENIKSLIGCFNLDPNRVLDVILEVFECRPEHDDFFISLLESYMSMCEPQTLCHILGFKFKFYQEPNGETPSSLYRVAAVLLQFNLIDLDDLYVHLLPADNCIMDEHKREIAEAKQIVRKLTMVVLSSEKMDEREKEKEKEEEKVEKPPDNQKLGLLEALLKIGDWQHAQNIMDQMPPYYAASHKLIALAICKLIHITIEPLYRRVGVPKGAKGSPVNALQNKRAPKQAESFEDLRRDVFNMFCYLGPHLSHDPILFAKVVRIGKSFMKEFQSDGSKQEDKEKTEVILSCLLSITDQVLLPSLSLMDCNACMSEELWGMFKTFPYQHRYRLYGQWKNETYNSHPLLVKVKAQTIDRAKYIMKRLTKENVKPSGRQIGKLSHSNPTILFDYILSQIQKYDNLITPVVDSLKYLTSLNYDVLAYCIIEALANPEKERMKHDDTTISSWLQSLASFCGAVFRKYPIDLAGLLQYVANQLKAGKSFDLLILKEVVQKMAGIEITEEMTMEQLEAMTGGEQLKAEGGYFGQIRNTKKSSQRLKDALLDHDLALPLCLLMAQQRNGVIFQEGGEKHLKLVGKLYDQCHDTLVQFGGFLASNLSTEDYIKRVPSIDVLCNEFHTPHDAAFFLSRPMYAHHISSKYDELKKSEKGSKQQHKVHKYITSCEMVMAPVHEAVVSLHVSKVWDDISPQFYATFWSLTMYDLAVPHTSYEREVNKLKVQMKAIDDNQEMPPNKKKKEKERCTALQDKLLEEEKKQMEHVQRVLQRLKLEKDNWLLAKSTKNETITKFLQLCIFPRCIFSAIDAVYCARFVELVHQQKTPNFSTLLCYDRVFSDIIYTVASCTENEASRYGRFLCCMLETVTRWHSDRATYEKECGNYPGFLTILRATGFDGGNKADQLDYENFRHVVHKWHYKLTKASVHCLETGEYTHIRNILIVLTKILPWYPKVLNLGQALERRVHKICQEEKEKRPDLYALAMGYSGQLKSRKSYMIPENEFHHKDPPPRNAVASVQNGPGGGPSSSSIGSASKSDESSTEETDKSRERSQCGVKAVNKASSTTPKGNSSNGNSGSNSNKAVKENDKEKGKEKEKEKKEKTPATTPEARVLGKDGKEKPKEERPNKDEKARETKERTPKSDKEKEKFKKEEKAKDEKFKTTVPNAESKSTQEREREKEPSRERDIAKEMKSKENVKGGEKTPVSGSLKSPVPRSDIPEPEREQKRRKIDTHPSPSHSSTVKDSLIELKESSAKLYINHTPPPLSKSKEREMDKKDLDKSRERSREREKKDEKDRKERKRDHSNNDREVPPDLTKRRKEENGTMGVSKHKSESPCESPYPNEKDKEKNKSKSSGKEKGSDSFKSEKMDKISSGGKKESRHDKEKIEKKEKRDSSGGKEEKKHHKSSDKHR
UniProt Q9P016: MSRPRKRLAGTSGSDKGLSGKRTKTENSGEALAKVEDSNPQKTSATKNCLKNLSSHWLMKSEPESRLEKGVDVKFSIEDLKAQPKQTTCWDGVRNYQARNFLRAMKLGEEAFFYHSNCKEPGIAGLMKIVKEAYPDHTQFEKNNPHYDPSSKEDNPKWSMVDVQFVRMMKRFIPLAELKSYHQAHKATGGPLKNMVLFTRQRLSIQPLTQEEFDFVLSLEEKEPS
UniProt Q14188: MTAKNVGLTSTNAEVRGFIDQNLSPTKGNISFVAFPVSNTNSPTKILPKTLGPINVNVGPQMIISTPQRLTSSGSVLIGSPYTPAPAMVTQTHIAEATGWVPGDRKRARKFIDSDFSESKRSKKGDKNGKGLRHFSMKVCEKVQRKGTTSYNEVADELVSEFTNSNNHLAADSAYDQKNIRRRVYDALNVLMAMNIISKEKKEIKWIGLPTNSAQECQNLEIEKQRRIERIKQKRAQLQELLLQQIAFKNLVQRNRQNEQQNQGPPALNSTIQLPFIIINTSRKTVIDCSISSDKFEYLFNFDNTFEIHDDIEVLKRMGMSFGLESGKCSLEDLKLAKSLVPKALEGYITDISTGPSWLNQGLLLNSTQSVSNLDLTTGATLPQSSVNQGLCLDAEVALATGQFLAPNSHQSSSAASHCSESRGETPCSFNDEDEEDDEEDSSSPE
UniProt Q13428: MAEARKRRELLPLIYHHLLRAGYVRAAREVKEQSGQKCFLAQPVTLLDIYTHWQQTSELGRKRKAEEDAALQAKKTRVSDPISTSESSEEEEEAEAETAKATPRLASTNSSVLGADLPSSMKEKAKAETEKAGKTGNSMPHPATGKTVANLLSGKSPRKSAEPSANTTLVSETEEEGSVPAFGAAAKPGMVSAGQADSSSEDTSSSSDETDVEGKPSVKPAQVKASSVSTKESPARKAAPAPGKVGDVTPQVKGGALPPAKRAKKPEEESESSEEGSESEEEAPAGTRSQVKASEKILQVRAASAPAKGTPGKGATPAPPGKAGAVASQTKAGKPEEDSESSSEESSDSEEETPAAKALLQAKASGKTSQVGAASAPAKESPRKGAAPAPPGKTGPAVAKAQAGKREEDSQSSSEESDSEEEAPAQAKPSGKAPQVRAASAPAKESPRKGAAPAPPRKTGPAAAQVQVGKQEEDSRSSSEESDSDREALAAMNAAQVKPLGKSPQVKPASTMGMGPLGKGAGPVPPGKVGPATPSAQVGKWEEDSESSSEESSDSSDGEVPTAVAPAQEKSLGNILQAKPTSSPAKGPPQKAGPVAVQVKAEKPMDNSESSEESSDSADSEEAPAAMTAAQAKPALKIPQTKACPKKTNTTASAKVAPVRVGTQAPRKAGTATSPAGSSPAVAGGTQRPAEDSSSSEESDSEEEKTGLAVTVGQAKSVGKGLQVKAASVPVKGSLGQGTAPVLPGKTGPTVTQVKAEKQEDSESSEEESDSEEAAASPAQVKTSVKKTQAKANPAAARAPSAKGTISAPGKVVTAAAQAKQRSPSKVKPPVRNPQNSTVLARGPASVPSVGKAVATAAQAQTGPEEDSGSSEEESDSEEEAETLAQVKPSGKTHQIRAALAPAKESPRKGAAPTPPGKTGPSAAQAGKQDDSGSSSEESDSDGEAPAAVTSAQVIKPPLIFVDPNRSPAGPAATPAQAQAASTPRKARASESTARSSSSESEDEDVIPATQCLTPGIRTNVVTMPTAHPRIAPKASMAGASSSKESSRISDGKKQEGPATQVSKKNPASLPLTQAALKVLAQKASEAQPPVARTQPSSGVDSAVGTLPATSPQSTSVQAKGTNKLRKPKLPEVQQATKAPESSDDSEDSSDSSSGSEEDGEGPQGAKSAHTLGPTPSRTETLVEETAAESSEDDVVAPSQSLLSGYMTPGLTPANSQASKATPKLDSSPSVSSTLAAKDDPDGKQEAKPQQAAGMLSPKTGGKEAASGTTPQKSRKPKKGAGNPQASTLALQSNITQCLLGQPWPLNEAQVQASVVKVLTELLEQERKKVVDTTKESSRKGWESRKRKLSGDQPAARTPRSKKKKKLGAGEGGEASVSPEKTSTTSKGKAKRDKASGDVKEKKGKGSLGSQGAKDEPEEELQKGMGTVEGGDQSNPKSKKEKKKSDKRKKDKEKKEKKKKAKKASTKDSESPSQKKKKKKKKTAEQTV
UniProt Q9Y584: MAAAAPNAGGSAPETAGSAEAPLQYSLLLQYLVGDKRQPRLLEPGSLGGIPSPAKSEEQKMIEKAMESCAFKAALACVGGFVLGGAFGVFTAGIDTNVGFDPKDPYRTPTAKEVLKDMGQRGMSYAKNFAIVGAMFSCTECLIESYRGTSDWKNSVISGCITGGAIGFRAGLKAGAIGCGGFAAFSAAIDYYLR
UniProt Q9UHD2: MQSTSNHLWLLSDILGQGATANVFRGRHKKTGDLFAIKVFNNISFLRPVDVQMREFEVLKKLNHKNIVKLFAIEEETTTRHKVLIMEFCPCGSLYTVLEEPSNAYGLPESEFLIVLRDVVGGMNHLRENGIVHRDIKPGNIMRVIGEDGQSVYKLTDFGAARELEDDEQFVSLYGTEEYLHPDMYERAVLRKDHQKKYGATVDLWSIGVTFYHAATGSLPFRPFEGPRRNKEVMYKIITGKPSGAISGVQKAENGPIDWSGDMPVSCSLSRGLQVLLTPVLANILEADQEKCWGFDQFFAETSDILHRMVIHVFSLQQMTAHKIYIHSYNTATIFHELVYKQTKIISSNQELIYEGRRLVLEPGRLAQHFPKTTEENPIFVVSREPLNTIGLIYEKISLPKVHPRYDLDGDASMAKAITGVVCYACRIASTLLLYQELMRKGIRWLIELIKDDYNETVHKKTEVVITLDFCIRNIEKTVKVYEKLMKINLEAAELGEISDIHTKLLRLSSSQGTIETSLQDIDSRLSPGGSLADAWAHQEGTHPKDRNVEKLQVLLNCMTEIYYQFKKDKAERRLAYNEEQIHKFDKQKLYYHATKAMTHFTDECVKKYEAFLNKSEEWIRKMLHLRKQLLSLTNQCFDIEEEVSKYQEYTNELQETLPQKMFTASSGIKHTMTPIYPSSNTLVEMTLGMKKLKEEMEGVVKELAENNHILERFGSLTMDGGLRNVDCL
UniProt Q9Y5L4: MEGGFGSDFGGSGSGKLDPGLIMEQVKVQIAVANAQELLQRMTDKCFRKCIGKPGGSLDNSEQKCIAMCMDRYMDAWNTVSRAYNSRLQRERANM
UniProt Q5VWP2: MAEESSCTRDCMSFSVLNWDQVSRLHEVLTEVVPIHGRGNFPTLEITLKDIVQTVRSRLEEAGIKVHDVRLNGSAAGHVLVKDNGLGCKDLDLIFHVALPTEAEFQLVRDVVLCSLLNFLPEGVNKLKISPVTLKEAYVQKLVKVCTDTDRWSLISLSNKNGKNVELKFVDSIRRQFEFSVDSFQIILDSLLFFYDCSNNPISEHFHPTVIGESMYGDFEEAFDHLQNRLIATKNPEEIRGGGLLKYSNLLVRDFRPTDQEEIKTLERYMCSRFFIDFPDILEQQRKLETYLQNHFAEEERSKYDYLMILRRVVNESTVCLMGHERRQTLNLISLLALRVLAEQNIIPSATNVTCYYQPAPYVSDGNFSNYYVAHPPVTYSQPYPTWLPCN
UniProt Q99081: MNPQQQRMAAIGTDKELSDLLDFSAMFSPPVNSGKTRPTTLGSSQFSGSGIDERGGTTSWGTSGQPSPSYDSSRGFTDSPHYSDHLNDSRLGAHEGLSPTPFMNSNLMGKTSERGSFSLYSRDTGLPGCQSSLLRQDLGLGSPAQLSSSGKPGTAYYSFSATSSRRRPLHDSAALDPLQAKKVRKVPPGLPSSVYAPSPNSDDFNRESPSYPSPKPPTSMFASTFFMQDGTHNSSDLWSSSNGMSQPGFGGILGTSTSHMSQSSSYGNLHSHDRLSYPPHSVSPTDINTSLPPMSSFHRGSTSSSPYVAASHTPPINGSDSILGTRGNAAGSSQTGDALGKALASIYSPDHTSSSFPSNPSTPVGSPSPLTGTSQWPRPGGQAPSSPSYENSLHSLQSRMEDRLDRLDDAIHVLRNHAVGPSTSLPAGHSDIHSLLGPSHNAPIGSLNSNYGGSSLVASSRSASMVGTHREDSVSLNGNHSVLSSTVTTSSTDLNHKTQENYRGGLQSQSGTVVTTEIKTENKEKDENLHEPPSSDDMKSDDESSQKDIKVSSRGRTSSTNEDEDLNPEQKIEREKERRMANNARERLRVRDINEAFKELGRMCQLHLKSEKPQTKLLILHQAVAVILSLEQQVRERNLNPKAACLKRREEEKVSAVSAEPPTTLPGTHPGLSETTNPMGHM

Compound: NC1(c2ccc(-c3nc4ccn5c(=O)[nH]nc5c4cc3-c3ccccc3)cc2)CCC1
Test: log2 fold change, soluble protein after heating vs DMSO (PISA); higher = thermal stabilisation; K562 cells, 10 uM, 30 min; active = over 0.2 and 3.5 SD of the protein, either way, in both replicates (recomputed)
In short: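 Values are thermal stability changes relative to control samples and are taken from duplicates. They are stated as log2 fold changes. Before quantification by TMTpro 16plex LC-MS/MS with equalised channel sums, K562 cells at 2×10^6 cells/mL were treated with 10 μM compound for 30 min, heated in aliquots for 3 min across 48°C-58°C, pooled, extracted in PBS with 0.5% NP-40 at 4°C, and centrifuged at 21,000xg for 90 min to give the soluble supernatant.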

log2 fold change, inactive:
TBC1D14 (UniProt Q9P2M4) 0.013
TGOLN2 isoform 7 (UniProt O43493) 0.049
TIMMDC1 (UniProt Q9NPL8) 0.011
THOC2 (UniProt Q8NI27) 0.043
TFPI (UniProt P10646) 0.13
THYN1 (UniProt Q9P016) -0.048
THRAP3 (UniProt Q9Y2W1) -0.153
TK1 (UniProt K7ERV3) -0.005
TFDP2 (UniProt Q14188) -0.159
TCOF1 isoform 6 (UniProt Q13428) -0.07
THBS1 (UniProt P07996) 0.001
TIMM22 (UniProt Q9Y584) 0
TDRD15 (UniProt B5MCY1) 0.08
TIMM10B (UniProt Q9Y5J6) -0.111
TBK1 (UniProt Q9UHD2) -0.086
TKT, A0A0B4J1R6 -0.033
TGFB1 (UniProt P01137) -0.033
THUMPD1 (UniProt Q9NXG2) -0.016
TGS1 (UniProt Q96RS0) 0.094
TIMM13 (UniProt Q9Y5L4) -0.027
TENT5C (UniProt Q5VWP2) 0.006
TCF12 isoform 3 (UniProt Q99081) -0.103
THOC6 (UniProt Q86W42) 0.001

A portion of the results above, as a working copy:
log2 fold change, inactive:
TGOLN2 isoform 7 (UniProt O43493) 0.049
TIMMDC1 (UniProt Q9NPL8) 0.011
THOC2 (UniProt Q8NI27) 0.043
TFPI (UniProt P10646) 0.13
THYN1 (UniProt Q9P016) -0.048
THRAP3 (UniProt Q9Y2W1) -0.153
TK1 (UniProt K7ERV3) -0.005
